Values of other authors, collected in US6869615B2, “Pharmaceutical formulations containing a non-steroidal antiinflammatory drug and a proton pump inhibitor” (Andrx Labs LLC, priority 2000, dated 2005).

Details: water solutions at pH-values less than three

## COc1ccc2[nH]c([S+]([O-])Cc3ncc(C)c(OC)c3C)nc2c1 (stereo not shown) [omeprazole]
  half-life of degradation: shorter than ten minutes
